Measurements reported in PubChem BioAssay AID504804 (Drosophila RNAi Screening Center, 2011)
In all, the deposit lists about 19,000 reagents; below is an unselected part of those with a known target gene and a result. In the full data, 47 (0.25%) were called active. 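Signals are raw, not normalised; exact z-scores behind calls not deposited; actives needed confirmation, so some wells reaching 2 SD are inactive.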 Names joined by + are all predicted targets of the reagent. No sequences are given here.

- Test: 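Knock-downs shielding fly cells from apoptosis caused by DNA damage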 (primary screen)
- System: Drosophila Kc cells
- Reagent: long dsRNA against Drosophila genes, 0.5 µg dsRNA per well
- Timing: 96 h (48 h knock-down, then 48 h drug)
- Challenge: doxorubicin 5 µg/ml for 48 h, added 48 h after dsRNA
- Measurement: 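Viability measured as cellular ATP by luminescence after 48 h knock-down then 48 h doxorubicin at 5 µg/ml; unnormalised plate counts for each replicate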
- Reading the numbers: raw ATP luminescence: higher = more viable cells, protection from doxorubicin
- Hit rule: 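Active when both duplicate wells lie at least 2 SD above the plate mean and protection is confirmed by rescreening and independent dsRNAs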

"raw ATP luminescence, replicate 1","raw ATP luminescence, replicate 2",outcome,Target gene,dsRNA
59350,52610,inactive,Mob3,DRSC02791
25353,30450,inactive,stretch (retired record),DRSC14347
46350,45290,inactive,stretch (retired record),DRSC14512
50283,46353,inactive,stretch (retired record),DRSC14541
46153,46193,inactive,stretch (retired record),DRSC14542
44147,45580,inactive,stretch (retired record),DRSC14543
31853,41040,inactive,Grik,DRSC15846
56990,76980,inactive,Grik,DRSC15847
47167,76810,inactive,Tsp42Ei,DRSC06189
1.59e5,1.94e5,inactive,CG13408,DRSC13534
51150,60270,inactive,CG13408,DRSC14584
23843,41160,inactive,snRNP-U1-70K,DRSC03612
41250,67010,inactive,CG10300,DRSC14225
48330,46453,inactive,Polr2F,DRSC12366
55380,71820,inactive,CG10232,DRSC14218
2.63e5,2.84e5,inactive,w,DRSC17233
51870,45960,inactive,w,DRSC18850
1.43e5,1.76e5,inactive,CG32276,DRSC08027
76770,75680,inactive,bam,DRSC16907
66347,43870,inactive,Opa1,DRSC07191
76687,89917,inactive,CG33704,DRSC03838
17833,12723,inactive,Ccdc85,DRSC00501
48960,47780,inactive,CG31176,DRSC15038
51900,55770,inactive,CG31176,DRSC16021
70850,61517,inactive,ova,DRSC02879
70307,69567,inactive,Gr66a,DRSC10783
63360,42560,inactive,CG14259,DRSC14754
87220,68770,inactive,CG10814,DRSC06004
2.22e5,2.18e5,inactive,Cdc42,DRSC20228
58317,63093,inactive,Tsen54,DRSC10527
66120,73950,inactive,CG31266,DRSC15747
3.75e5,3.24e5,inactive,Pis,DRSC20178
48030,57880,inactive,Jon99Fii + Jon99Cii + Jon99Ciii + 1 more,DRSC15298
1.92e5,1.84e5,inactive,hog,DRSC19057
72870,64930,inactive,Tmtc4,DRSC15702
41513,33073,inactive,CG13058,DRSC09941
37860,46590,inactive,lbl,DRSC16986
58560,52180,inactive,Mst57Dc,DRSC16745
83957,85720,inactive,CG34249 (retired record),DRSC09431
43450,68987,inactive,ATPsynGL,DRSC03027
74590,43270,inactive,CG14253,DRSC14748
4.06e5,3.76e5,inactive,disco-r,DRSC20173
3.74e5,3.91e5,inactive,disco-r,DRSC20174
42443,78810,inactive,CG4017,DRSC02733
45093,56903,inactive,JMJD6,DRSC15787
76373,69920,inactive,CG33752,DRSC05351
54720,44680,inactive,CG30389,DRSC04077
28923,34943,inactive,CG30389,DRSC04452
58147,61020,inactive,CG11755,DRSC14374
35083,29217,inactive,CG9312,DRSC16471
51617,59320,inactive,Rif1,DRSC05593
47190,39323,inactive,Oseg1,DRSC10776
64797,55577,inactive,Hsp70Bb + Hsp70Bbb,DRSC15885
24753,23703,inactive,tctn + B9d2,DRSC03160
52113,69870,inactive,CNT1,DRSC06082
81560,54920,inactive,Mst98Cb,DRSC16750
44333,36250,inactive,CG10752,DRSC09799
38903,37147,inactive,LanB2,DRSC11208
45603,60740,inactive,mtTFB2,DRSC15519
34033,77863,inactive,Mdh1 (retired record),DRSC02846
2.41e5,2.58e5,inactive,CG3587,DRSC18541
3.49e5,3.20e5,inactive,CG11162,DRSC19391
62557,50940,inactive,CG5157,DRSC10488
26503,24527,inactive,RpS13,DRSC03419
78723,56787,inactive,caps,DRSC11333
41680,73727,inactive,Cyp6a15Psi,DRSC07377
4.54e5,3.51e5,inactive,CG12057,DRSC17797
3.23e5,3.10e5,inactive,CG31848,DRSC01309
3.34e5,2.91e5,inactive,Atg101,DRSC20020
42420,49480,inactive,Lint-O,DRSC18468
60963,77080,inactive,CG8620,DRSC11020
74887,43507,inactive,DCAF12,DRSC15475
71443,67810,inactive,porin,DRSC03594
49670,44580,inactive,Slu7,DRSC14729
54043,61587,inactive,CG14667,DRSC12253
1.08e5,70957,inactive,grk,DRSC03540
3.83e5,3.07e5,inactive,CG32708,DRSC18411
66890,65020,inactive,RhoGAP93B,DRSC15488
2.89e5,2.37e5,inactive,CG33642,DRSC01325
1.22e5,1.52e5,inactive,CG14229,DRSC19585
35693,34860,inactive,CG4328,DRSC10410
1.82e5,2.08e5,inactive,CG34001,DRSC09042
76320,74473,inactive,CG3511,DRSC04382
56830,64550,inactive,Glut3,DRSC16681
78270,70250,inactive,tadr,DRSC03177
52587,49570,inactive,CG15475,DRSC02486
79127,81837,inactive,BobA,DRSC09889
1.04e5,99270,inactive,CG30075,DRSC05484
1.17e5,1.64e5,inactive,CG13681 (retired record),DRSC08906
1.29e5,1.61e5,inactive,CG13681 (retired record),DRSC08907
68183,61563,inactive,CG13681 (retired record),DRSC10038
70293,84170,inactive,CG13681 (retired record),DRSC10039
66610,84507,inactive,CG13681 (retired record),DRSC10927
48283,42307,inactive,CG13681 (retired record),DRSC10929
45523,48373,inactive,CG5746,DRSC15868
75217,80297,inactive,Tim17b2,DRSC03457
88720,95320,inactive,CG32243,DRSC08105
3.51e5,3.49e5,inactive,CG32700,DRSC17857
3.02e5,2.94e5,inactive,CG32700,DRSC17858
54360,35530,inactive,CG5934,DRSC15922
89697,99063,inactive,CG4611,DRSC10434
2.84e5,3.26e5,inactive,CG3632,DRSC19137
55990,68000,inactive,Muc91C,DRSC16297
1.79e5,2.29e5,inactive,CG33333,DRSC13233
1.03e5,1.10e5,inactive,CG34188,DRSC05549
41240,55117,inactive,spag4,DRSC02973
47500,40277,inactive,Nulp1,DRSC09677

A run of entries from the list above, for reference:
"raw ATP luminescence, replicate 1","raw ATP luminescence, replicate 2",outcome,Target gene,dsRNA
44333,36250,inactive,CG10752,DRSC09799
38903,37147,inactive,LanB2,DRSC11208
45603,60740,inactive,mtTFB2,DRSC15519
34033,77863,inactive,Mdh1 (retired record),DRSC02846
2.41e5,2.58e5,inactive,CG3587,DRSC18541
3.49e5,3.20e5,inactive,CG11162,DRSC19391
62557,50940,inactive,CG5157,DRSC10488
26503,24527,inactive,RpS13,DRSC03419
78723,56787,inactive,caps,DRSC11333
